The list shows a part of the results.
biological target: OsWRKY34 (Oryza sativa, UniProt Q0JBA9 1-250); experiment: protein-binding microarray (RPBM); PBS, 2% BSA, 51.3 ng/ul salmon testes DNA, 50 uM zinc acetate, 200 nM TF, 25 C, 1 h; high values mean tight binding; conditions: protein: recombinant; tags: N-terminal polyhistidine and DsRed monomer fusion (pET32a); label: CyDye5-dUTP incorporated in the synthesized complementary strand; 3' TTTTT single-stranded linker to array surface; dsDNA, one strand shown
Procedure, shortened: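 Transcription factors were made in E. coli BL21-CodonPlus as N-terminal fusions to a polyhistidine tag and DsRed, then purified on Ni–NTA. After primer extension with Cy5-dUTP and blocking with 2% BSA, a custom Agilent array was exposed for 1 h at 25 °C to 200 nM protein in PBS, 2% BSA, salmon testes DNA and 50 µM zinc acetate. Washed arrays were scanned on an Axon 4000B, and the binding signal is per-feature fluorescence intensity in arbitrary units.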

Amino acid sequences for entries named in this document (tags omitted).
UniProt Q0JBA9, entry or part of it: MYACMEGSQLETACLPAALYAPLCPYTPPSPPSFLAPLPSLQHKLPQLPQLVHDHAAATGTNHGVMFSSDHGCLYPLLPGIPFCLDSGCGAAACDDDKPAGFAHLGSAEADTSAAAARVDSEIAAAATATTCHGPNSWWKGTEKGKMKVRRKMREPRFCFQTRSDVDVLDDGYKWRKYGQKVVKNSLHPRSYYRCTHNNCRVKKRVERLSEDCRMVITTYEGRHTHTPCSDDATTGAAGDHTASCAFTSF

| Sequence | binding signal |
| --- | --- |
| GGAAGAGCCGAACCAGCAACACGACATCACACGCCCATCTCGGAGTCACCTAGTGCAG | 8950 fluorescence intensity (a.u.) |
| TTCTCTTGTCCTCAACCCCAAAACCCTCACCCCACAACTCCGGAGTCACCTAGTGCAG | 8460 fluorescence intensity (a.u.) |
| TGTTTTGCAATTCTCTGTTTTACACTTTCATTTTTATCAACGGAGTCACCTAGTGCAG | 10600 fluorescence intensity (a.u.) |
| TCCTGTGCCTCTCTCATGGTGTGGGTGTCTGTGTCTTTGACGGAGTCACCTAGTGCAG | 9040 fluorescence intensity (a.u.) |
| GATCCGCTCAGTACACCGTAATTAATTGCCACATTTTAAACGGAGTCACCTAGTGCAG | 9140 fluorescence intensity (a.u.) |
| ATAGGGCGGGTACCATTCTTATGGTTTCAAATTAACTACACGGAGTCACCTAGTGCAG | 10700 fluorescence intensity (a.u.) |
| CTGTTTTCTTCCCACTTAGCTTAAATATTTTAGTATGAGACGGAGTCACCTAGTGCAG | 9990 fluorescence intensity (a.u.) |
| TATTTTCATACTACTTTGGTACTTTTGCTTTTTAGTACATCGGAGTCACCTAGTGCAG | 9450 fluorescence intensity (a.u.) |
| CGGCCTCCACCACCGCCGTCCCAATGCCGTCGCCACCCACCGGAGTCACCTAGTGCAG | 9000 fluorescence intensity (a.u.) |
| AGCTTTCTTGACTTGTATGAAAAACATATCTGATCATCTCCGGAGTCACCTAGTGCAG | 8550 fluorescence intensity (a.u.) |
| AAAAATAAAAAATAATTATATCGAGAGTAAATATAAAATGCGGAGTCACCTAGTGCAG | 10700 fluorescence intensity (a.u.) |
| CGGTTTTGTAAATTGAGGGGTGCCATATATCTGGTTTCATCGGAGTCACCTAGTGCAG | 10800 fluorescence intensity (a.u.) |
| AGGTGTTGTGTGCTGTGGAAGTTTCTTGGGAGGGCAAGCTCGGAGTCACCTAGTGCAG | 11500 fluorescence intensity (a.u.) |
| TCTTCACCTATATGTATATTGATTTGCACTACTCTACACACGGAGTCACCTAGTGCAG | 8040 fluorescence intensity (a.u.) |
| TCTTCTCTCGTCAAATTAACAGCCTATCGATGATCGATTACGGAGTCACCTAGTGCAG | 9400 fluorescence intensity (a.u.) |
| GGTTGGTCGCGTCGCGCTGCACAGCACCCGGTCTTTGAAACGGAGTCACCTAGTGCAG | 11400 fluorescence intensity (a.u.) |
| GTCTTATTGCTCCGATTGCTTGGTCATGTTTATTTGATTACGGAGTCACCTAGTGCAG | 10500 fluorescence intensity (a.u.) |
| TCGTTGCCGTTTTCGAAGAGTGACATAGGCGGGGTGGGTGCGGAGTCACCTAGTGCAG | 10200 fluorescence intensity (a.u.) |
| CTTGCCCCGCACCGCGCGCGCGCGCGCCTCTCTCGGCCACCGGAGTCACCTAGTGCAG | 8490 fluorescence intensity (a.u.) |
| TTGGTCTGTTGGTGGCCGGGGCGCGGGCGCGCTTACCTGTCGGAGTCACCTAGTGCAG | 9150 fluorescence intensity (a.u.) |
| ATCGAGGTTTTTTTTTTCAGCCTTTATCGTCTTCTTGCAACGGAGTCACCTAGTGCAG | 9370 fluorescence intensity (a.u.) |

| Sequence | binding signal |
| --- | --- |
| TCTAATACTATGAATCTTGACAGTCTGTTGACTTTCTTTACGGAGTCACCTAGTGCAG | 10600 fluorescence intensity (a.u.) |
| AAAATTTTAGTTTGAACCATCCTTGCAACTTTTTTTTTTCCGGAGTCACCTAGTGCAG | 9800 fluorescence intensity (a.u.) |
| AGCAATTAAGCCTCGTGTTGTGATTGGTTGGCTGGTTGGTCGGAGTCACCTAGTGCAG | 9060 fluorescence intensity (a.u.) |
| CACACACACCGATCTTTTCATTCATTCTTTTCTTTCTTTTCGGAGTCACCTAGTGCAG | 18700 fluorescence intensity (a.u.) |
| TTCCTCCGTTTTCTCCGTTCGTCTTCCTCCGCTTCCGAAGCGGAGTCACCTAGTGCAG | 18000 fluorescence intensity (a.u.) |
| ATATTACTCGATTTTTGTATTAGGTTGCCTTAGCAACTTTCGGAGTCACCTAGTGCAG | 8070 fluorescence intensity (a.u.) |
| GGGCTTATCAGTTATCCCAGCGCTGCACCCACGCCACCACCGGAGTCACCTAGTGCAG | 11000 fluorescence intensity (a.u.) |
| CACACATCAAGTTCAATTGCAACTTCTACATCCTCGGCTGCGGAGTCACCTAGTGCAG | 10100 fluorescence intensity (a.u.) |
| CTCGCTTTTCTCTTTTTTGATACTGTCTCGTGGTTTCTTGCGGAGTCACCTAGTGCAG | 18400 fluorescence intensity (a.u.) |
| AATCTGATACTATGGTTGTGTTTAGTTCGTGTGCCAATTTCGGAGTCACCTAGTGCAG | 13100 fluorescence intensity (a.u.) |
| TCGTCTTTACAGCCAAACCACCACGCATTTTTCGTTCTGTCGGAGTCACCTAGTGCAG | 8470 fluorescence intensity (a.u.) |
| TGCTCTTCAAATCGATCCCTTTATCGAATCCGCCTCGATCCGGAGTCACCTAGTGCAG | 9080 fluorescence intensity (a.u.) |
| CCCCTTTCATACTCTACCTCAGCGCCTGATTTCAAAGTTTCGGAGTCACCTAGTGCAG | 8500 fluorescence intensity (a.u.) |
| TTTACCGATGTTACCGTTTTCAAAATTTTGTTTTTTTTATCGGAGTCACCTAGTGCAG | 9720 fluorescence intensity (a.u.) |
| AATTATTATTTATTTTGTTTGTGATTTACTTTATTATCAACGGAGTCACCTAGTGCAG | 8390 fluorescence intensity (a.u.) |
| ATGCACTTGTTTTTTGTAACGCTGTAAGTTCATATCTGTCCGGAGTCACCTAGTGCAG | 13100 fluorescence intensity (a.u.) |
| ACTTTGTTTATAGGGGTGAGGGTACGTTCGTGTGAGTGTCCGGAGTCACCTAGTGCAG | 8630 fluorescence intensity (a.u.) |
| CTCTCGAGCTCACCCCGTCATCCACCTCACCCGCGCCGTCCGGAGTCACCTAGTGCAG | 9420 fluorescence intensity (a.u.) |
| TCTCTTGTTGTGTTATGGAAATTTCACTCGAATCTTCTTTCGGAGTCACCTAGTGCAG | 9280 fluorescence intensity (a.u.) |
| TCTCTCCTCTCTCTGCATCCTCTGCTCAGTGCTCATTCCACGGAGTCACCTAGTGCAG | 10600 fluorescence intensity (a.u.) |
| ACTCTTCTTCCTTTTATTCACCCTCATGTAACAAAATTTCCGGAGTCACCTAGTGCAG | 8280 fluorescence intensity (a.u.) |

10 entries from above, tab-delimited:
Sequence	binding signal
TCTAATACTATGAATCTTGACAGTCTGTTGACTTTCTTTACGGAGTCACCTAGTGCAG	10600 fluorescence intensity (a.u.)
AGCAATTAAGCCTCGTGTTGTGATTGGTTGGCTGGTTGGTCGGAGTCACCTAGTGCAG	9060 fluorescence intensity (a.u.)
ATATTACTCGATTTTTGTATTAGGTTGCCTTAGCAACTTTCGGAGTCACCTAGTGCAG	8070 fluorescence intensity (a.u.)
CTCGCTTTTCTCTTTTTTGATACTGTCTCGTGGTTTCTTGCGGAGTCACCTAGTGCAG	18400 fluorescence intensity (a.u.)
AATCTGATACTATGGTTGTGTTTAGTTCGTGTGCCAATTTCGGAGTCACCTAGTGCAG	13100 fluorescence intensity (a.u.)
TCGTCTTTACAGCCAAACCACCACGCATTTTTCGTTCTGTCGGAGTCACCTAGTGCAG	8470 fluorescence intensity (a.u.)
CCCCTTTCATACTCTACCTCAGCGCCTGATTTCAAAGTTTCGGAGTCACCTAGTGCAG	8500 fluorescence intensity (a.u.)
TTTACCGATGTTACCGTTTTCAAAATTTTGTTTTTTTTATCGGAGTCACCTAGTGCAG	9720 fluorescence intensity (a.u.)
AATTATTATTTATTTTGTTTGTGATTTACTTTATTATCAACGGAGTCACCTAGTGCAG	8390 fluorescence intensity (a.u.)
TCTCTCCTCTCTCTGCATCCTCTGCTCAGTGCTCATTCCACGGAGTCACCTAGTGCAG	10600 fluorescence intensity (a.u.)

— PMC7819943, “Rice protein-binding microarrays: a tool to detect cis-acting elements near promoter regions in rice”
